Laboratory results taken from PubChem BioAssay AID2685 (National Center for Advancing Translational Sciences (NCATS), 2010).
The list shows a part of the results. These are further read-outs of the screen, such as a control signal, another cell line or another target. No call is given for them. Compounds called inactive in the main read-out are mostly missing here. The note in brackets gives the kind of curve behind each potency; many fits are weak.

Assay: qHTS Assay for Lipid Storage Modulators in Drosophila S3 Cells;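 for cell number change: cells counted by Cell Tracker Red CMTPX staining in the red channel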
Conditions: BODIPY lipid droplet fluorescence, 18-24 h; for cell number change: measured here: cell count max response, cells fed with added oleic acid
Method in brief: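 Drosophila S3 cells loaded with oleic acid (400 uM, as added) and compounds at several concentrations; lipid droplets imaged by 488-nm laser-scanning cytometry, 500–530 nm intensity and object ratio to cell channel. Percent activity normalized to 20 uM Triacsin C.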

[1] = measured here: lipid fluorescence (Fed channel) AC50, cells fed with added oleic acid
[2] = measured here: cell number channel AC50, cells fed with added oleic acid

Row | Compound | cell number change | AC50 [1] | AC50 [2]
1 | CC(=O)Nc1ccc(S(=O)(=O)NNC(=O)c2ccc3c(c2)OCO3)cc1 | -7.2% | 18.4 µM [rising, single point] | –
2 | O=C(Cn1c(N2CCN(c3ccccc3)CC2)nc2ccccc21)c1ccccc1 | – | – | 0.517 µM [rising, single point]
3 | CCSc1nsc(NC(=O)Nc2ccccc2F)n1 | -7.88% | – | –
4 | COc1ccc(CCN2CC(C(=O)N(C)CCOc3ccccc3)CCC2=O)cc1 (stereo not drawn) | 111% | – | 25.9 µM [rising, partial curve]
5 | O=C(NC(=S)Nc1cccc2c(O)cccc12)c1cccc(Br)c1 | -47.9% | 20.6 µM [falling, single point] | 20.6 µM [falling, single point]
6 | COc1c(/C=N/Nc2ccc([N+](=O)[O-])cc2[N+](=O)[O-])c(C)nn1-c1ccccc1 | -2.72% | 3.26 µM [falling, partial curve] | 3.26 µM [falling, partial curve]
7 | CCOC(=O)c1c(NC(=O)CN(CC)CC)sc2c1CCN(C(=O)OCC)C2 | -21.7% | 0.366 µM [rising, partial curve, poor fit] | –
8 | CCNC(=S)NNC(=O)c1cc(C)on1 | 22.7% | 9.2 µM [rising, partial curve, poor fit] | 6.51 µM [rising, single point]
9 | c1ccc2c(c1)ccc1nnc(SCc3ccc4c(c3)OCO4)n12 | -32.1% | 29.1 µM [falling, single point] | 29.1 µM [falling, single point]
10 | COCCSc1nnc(NC(=O)COc2ccc3c(c2)OCO3)s1 | 19.7% | – | –
11 | N#CC1=C(N)NC(SCC(=O)c2ccc(Cl)cc2)=C(C#N)C12CCCC2 | 2.29% | – | 0.058 µM [rising, full curve, poor fit]
12 | Cc1nnc(C)n1/N=C/c1ccc(C(C)C)cc1 | 20.8% | – | –
13 | CCS(=O)(=O)c1ccc(O)c(NC(=O)COc2ccc(Cl)cc2)c1 | -5.2% | 0.517 µM [falling, full curve, poor fit] | –
14 | CCc1ccc(NC(=O)N2CCc3ccccc3C2)cc1 | – | 0.58 µM [rising, single point] | –
15 | Cc1nc2c(nnn2Cc2ccccc2)c(=O)n1-c1ccccc1 | 39.4% | 29.1 µM [rising, single point] | 0.0259 µM [rising, full curve, poor fit]
16 | O=[N+]([O-])c1cc(C(F)(F)F)ccc1NCCNC(=S)Nc1ccc(Cl)cc1 | -36.1% | 29.1 µM [falling, single point] | –
17 | COc1ccc([N+](=O)[O-])c(OC)c1C(=O)NC(=O)Nc1c(F)cc(F)cc1F | 1.06% | – | –
18 | C[n+]1c(/C=C/c2ccc(O)cc2)ccc2ccccc21 | -25.2% | 16.4 µM [falling, single point] | –
19 | O=C(NCCCCc1ccccc1)Nc1ccc(F)cc1F | 8.38% | – | –
20 | COc1ccc(CCC(=O)NNC(=O)c2cc(Cl)ccc2OC)cc1OC | 18.3% | 0.13 µM [rising, full curve, poor fit] | –

Shown as labelled records: two of the compounds above
COc1c(/C=N/Nc2ccc([N+](=O)[O-])cc2[N+](=O)[O-])c(C)nn1-c1ccccc1
  cell number change: -2.72%
  AC50 [1]: 3.26 µM [falling, partial curve]
  AC50 [2]: 3.26 µM [falling, partial curve]
CCOC(=O)c1c(NC(=O)CN(CC)CC)sc2c1CCN(C(=O)OCC)C2
  cell number change: -21.7%
  AC50 [1]: 0.366 µM [rising, partial curve, poor fit]

(listing goes on)

Row | Compound | cell number change | AC50 [1] | AC50 [2]
21 | NC(=O)CC(NC(=O)Cc1ccc(Br)cc1)c1ccc(N2CCC(N3CCCC3)CC2)c([N+](=O)[O-])c1 (stereo not drawn) | 31.1% | 23.1 µM [rising, single point] | 16.4 µM [rising, partial curve, poor fit]
22 | Cc1cc(=O)oc2cc(NC(=O)Cc3ccccc3[N+](=O)[O-])ccc12 | 30.3% | – | 0.00517 µM [rising, full curve, poor fit]
23 | c1ccc(OCCCc2nc(-c3ccncc3)no2)cc1 | -2.04% | – | –
24 | O=C(CCS(=O)(=O)c1ccccc1)NC12CC3CC(CC(C3)C1)C2 | -52.6% | 6.51 µM [falling, full curve] | 13 µM [falling, partial curve]
25 | CCn1c(=O)c(CCC(=O)NCC2CCCO2)c(C)c2c(C)nn(-c3ccc(C)cc3)c21 (stereo not drawn) | -3.61% | 3.66 µM [falling, single point] | –
26 | COc1ccc(N2C(=O)/C(=C\c3ccco3)N=C2SCC(N)=O)cc1Cl | 55.9% | – | –
27 | O=Cc1cn(CC(O)CN2CCCCC2)c2ccccc12 (stereo not drawn) | 12.5% | – | –
28 | CCC(C)Nc1nc(-c2ccccn2)nc2ccccc12 (stereo not drawn) | -17.9% | 18.4 µM [falling, single point] | –
29 | CCOC(=O)c1c(NC(=S)NC(=O)c2ccc(Cn3cc(Cl)cn3)o2)sc2c1CCCCC2 | 22.5% | – | 0.82 µM [rising, full curve, poor fit]
30 | O=C(Cn1ncc(N2CCCC2)c(Cl)c1=O)c1ccc(Cl)cc1 | 12.6% | – | –
31 | CCN(CC)S(=O)(=O)c1ccc(OC)c(NC(=O)COc2ccc3c(C)cc(=O)oc3c2)c1 | 2.21% | 0.092 µM [rising, full curve, poor fit] | –
32 | C=CCn1c(SCCCc2ccccc2)nc2c1c(=O)[nH]c(=O)n2C | 8.49% | 0.092 µM [rising, full curve] | –
33 | O=S(=O)(NCc1ccc2c(c1)OCO2)c1ccccc1F | -17.3% | – | 0.092 µM [falling, full curve, poor fit]
34 | Cc1ccc(NC(=O)C2CCCN2S(=O)(=O)c2ccc(F)cc2)c(C)c1 (stereo not drawn) | – | – | 1.16 µM [rising, partial curve]
35 | COc1cccc(C(=O)NCCS(=O)(=O)N2CCCCC2)c1 | – | 0.259 µM [rising, full curve, poor fit] | –
36 | Nc1ccccc1-c1nnc(-c2ccccc2N)n1N | -20.4% | 0.794 µM [falling, single point] | –
37 | CCN(C(=O)CCN1C(=O)/C(=C/c2ccccc2)SC1=S)C1CCS(=O)(=O)C1 (stereo not drawn) | – | 13 µM [falling, partial curve] | –
38 | CC(/C=N/NC(=O)c1nnn(-c2nonc2N)c1C)=C\c1ccccc1 | 17.2% | – | –
39 | COC(=O)c1ccc(Sc2ccccc2NS(=O)(=O)c2ccc(OC)cc2)nc1 | 55.7% | 7.31 µM [rising, partial curve] | –
40 | COC(=O)C1=C(C)N(Cc2ccco2)C(=O)/C1=C\c1ccc([N+](=O)[O-])cc1 | -5.5% | 7.31 µM [falling, partial curve, poor fit] | 4.61 µM [falling, partial curve, poor fit]
